# The match of structure and compound is tentative.
# Protein sequences, listed by entry. Tags and fused reporters are not part of them.
# UniProt P22199, whole entry: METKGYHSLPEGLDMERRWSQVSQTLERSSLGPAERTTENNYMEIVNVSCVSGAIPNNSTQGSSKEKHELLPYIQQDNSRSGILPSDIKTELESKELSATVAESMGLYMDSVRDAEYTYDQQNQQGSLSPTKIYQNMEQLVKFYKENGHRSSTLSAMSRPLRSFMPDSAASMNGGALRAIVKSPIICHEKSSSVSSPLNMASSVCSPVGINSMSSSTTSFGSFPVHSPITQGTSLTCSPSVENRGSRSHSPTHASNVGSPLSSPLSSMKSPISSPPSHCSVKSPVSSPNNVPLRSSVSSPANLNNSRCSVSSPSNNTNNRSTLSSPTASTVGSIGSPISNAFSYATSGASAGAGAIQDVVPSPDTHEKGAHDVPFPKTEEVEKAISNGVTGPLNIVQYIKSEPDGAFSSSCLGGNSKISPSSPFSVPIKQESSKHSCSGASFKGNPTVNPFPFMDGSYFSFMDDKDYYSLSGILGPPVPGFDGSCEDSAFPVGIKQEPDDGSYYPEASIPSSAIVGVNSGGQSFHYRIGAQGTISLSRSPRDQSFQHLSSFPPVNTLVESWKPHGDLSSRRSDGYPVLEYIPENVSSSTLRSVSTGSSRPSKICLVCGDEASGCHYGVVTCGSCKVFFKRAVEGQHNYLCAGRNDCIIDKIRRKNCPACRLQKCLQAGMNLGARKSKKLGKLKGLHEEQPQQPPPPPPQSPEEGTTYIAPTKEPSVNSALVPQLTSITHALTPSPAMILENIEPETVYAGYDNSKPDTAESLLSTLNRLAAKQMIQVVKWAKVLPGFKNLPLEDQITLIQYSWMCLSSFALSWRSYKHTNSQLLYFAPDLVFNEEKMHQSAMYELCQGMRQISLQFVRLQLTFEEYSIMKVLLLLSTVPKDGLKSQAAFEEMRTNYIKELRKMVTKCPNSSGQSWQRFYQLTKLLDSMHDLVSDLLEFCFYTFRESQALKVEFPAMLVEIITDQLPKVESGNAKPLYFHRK
# Biological target: aldosterone receptor (Rattus norvegicus, UniProt P22199)
# Assay: Binding inhibition test for aldosterone receptor ([3H]aldosterone, rat renal soluble fraction)
# Conditions: read-out: MR IC50, [3H]aldosterone 2 nM, in the presence of 2 μM RU-486, 4° C. about 18 hours
row,SMILES,IC50 [nM]
1,COc1cc(NC(=O)c2ccc(-c3ccccc3C(F)(F)F)c(OCCN3CCCC3=O)c2)ccc1S(N)(=O)=O,3600
2,COCCNCc1cc(C(=O)Nc2ccc(S(C)(=O)=O)cc2)ccc1-c1ccccc1OC(F)(F)F,1300
3,COCc1cc(C(=O)Nc2ccc(S(N)(=O)=O)c(OC)c2)ccc1-c1ccccc1-c1ccncc1,< 10000

# Further lines, results first:
row,IC50 [nM],SMILES
1,870,CS(=O)(=O)c1ccc(NC(=O)c2ccc(-c3ccccc3OC(F)(F)F)c(CNCc3ccco3)c2)cc1
2,290,COc1cc(NC(=O)c2ccc(-c3ccccc3C(F)(F)F)c(COCCN3CCOCC3)c2)ccc1S(N)(=O)=O
3,410,COCCNCc1cc(C(=O)Nc2ccc(S(N)(=O)=O)c(OC)c2)ccc1-c1ccccc1C(F)(F)F
4,390,CS(=O)(=O)c1ccc(NC(=O)c2ccc(-c3ccccc3OC(F)(F)F)c(CNCc3nccs3)c2)cc1

# — patent US20130116227A1, “BIARYL AMIDE DERIVATIVE OR PHARMACEUTICALLY ACCEPTABLE SALT THEREOF” (DAINIPPON SUMITOMO PHARMA CO., LTD., priority 2010, published 2013)
